Data reported in PMC5996148.
Several values for one entry are separate records, joined by “and”; a condition that tells them apart may be missing. Identical values can stand only once. This is one part of the list.

Tests used:
Assay in all cases: protein microarray (ProtoArray v5.0), streptavidin-Alexa Fluor 647
Settings in all cases: 3'-biotin; 20 mM Tris (pH 7.5), 5 mM MgCl2, 100 mM KCl, 0.1% Tween-20, A/T-rich and random oligonucleotide blockers; temperature not stated; high values mean tight binding
[1] = system: Plasma membrane calcium-transporting ATPase 3 (human)
[2] = system: Plasminogen activator inhibitor 2 (human)
[3] = system: Pleckstrin homology domain-containing family J member 1 (human)
[4] = system: Podoplanin (human)
[5] = system: Polyamine-modulated factor 1 (human)
[6] = system: Potassium voltage-gated channel subfamily E member 1 (human)
[7] = system: Potassium voltage-gated channel subfamily E member 2 (human)
[8] = system: Pre-mRNA-splicing factor 38A (human)
[9] = system: Pre-mRNA-splicing factor ISY1 homolog (human)
[10] = system: Pregnancy-specific beta-1-glycoprotein 1 (human)
[11] = system: Prenylated Rab acceptor protein 1 (human)
[12] = system: Probable O-sialoglycoprotein endopeptidase 2 (human)
[13] = system: Probable ergosterol biosynthetic protein 28 (human)
[14] = system: Probable histone acetyltransferase MYST1 (human)
[15] = system: Prolactin (human)
[16] = system: Prostate stem cell antigen (human)
[17] = system: Proteasome assembly chaperone 2 (human)
[18] = system: Proteasome subunit alpha type-1 (human)
[19] = system: Proteasome subunit beta type-2 (human)
[20] = system: Protein 71-7A (human)

## GGGAGGCTGAGGCAGG [G4-1 biotinylated (PQS2)]
[1]
  binding signal: -0.296 z-score
[2]
  binding signal: -0.321 z-score
[3]
  binding signal: -0.305 z-score
[4]
  binding signal: -0.357 z-score and -0.349 z-score
[5]
  binding signal: -0.358 z-score
[6]
  binding signal: -0.309 z-score
[7]
  binding signal: -0.307 z-score
[8]
  binding signal: -0.262 z-score
[9]
  binding signal: -0.364 z-score
[10]
  binding signal: -0.275 z-score
[11]
  binding signal: -0.343 z-score
[12]
  binding signal: -0.288 z-score
[13]
  binding signal: -0.356 z-score
[14]
  binding signal: -0.334 z-score
[15]
  binding signal: -0.34 z-score
[16]
  binding signal: -0.338 z-score
[17]
  binding signal: -0.341 z-score
[18]
  binding signal: -0.308 z-score
[19]
  binding signal: -0.354 z-score
[20]
  binding signal: -0.333 z-score
